# PubChem BioAssay AID1439 (NMMLSC, 2008)
# Sequences of proteins named here, by UniProt entry; tags and fusion partners are left off.
# UniProt P09471, whole entry, looked up: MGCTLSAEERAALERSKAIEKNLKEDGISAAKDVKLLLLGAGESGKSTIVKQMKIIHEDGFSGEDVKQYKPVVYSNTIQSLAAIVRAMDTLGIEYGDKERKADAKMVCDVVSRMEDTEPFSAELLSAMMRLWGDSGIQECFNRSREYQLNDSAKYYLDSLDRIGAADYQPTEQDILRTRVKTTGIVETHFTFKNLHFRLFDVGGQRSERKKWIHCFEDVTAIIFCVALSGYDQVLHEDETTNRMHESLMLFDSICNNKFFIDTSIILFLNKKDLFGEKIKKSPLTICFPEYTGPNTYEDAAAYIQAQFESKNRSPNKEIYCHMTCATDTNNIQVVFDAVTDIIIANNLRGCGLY
# The whole screen tested about 220,000 compounds, of which about 770 (0.35%) were called active. Inconclusive means that the source gave no clear call. Such entries were picked first, then a sample of the others. Cut-off read from the data, not from the text of the source: active = binding response below about 49% or above about 150%; inconclusive = no clear call, values can overlap the other calls; inactive = in between.
# Biological target: Guanine nucleotide-binding protein G(o) subunit alpha (Homo sapiens) (UniProt P09471)
# Test: RGS7-Galphao binding modulators, primary screen, biochemical, multiplexed bead flow cytometry (AID 1439);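 note: fluorescent Galphao held in activated GDP-AlF4 state binding bead-coupled RGS7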
# Conditions: at 10 µM, actives lie on both sides
row,Structure (SMILES),binding response (% of control)
1,CCOC(=O)C1(Cc2ccc(OC)cc2)CCN(C(=O)CCn2cccn2)CC1,inconclusive: 108%
2,O=C(NNC(=O)c1ccccc1Cl)c1cc2cc(OC(F)(F)F)ccc2[nH]1,inconclusive: 123%
3,Cc1ccc(CNC(=O)COC(=O)c2cnc(C)cn2)cc1,inconclusive: 94.6%
4,CCC(C)(C)NC(=O)c1cc(C(=O)OC)cc([N+](=O)[O-])c1,inactive: 99.6%
5,CC(=O)c1c(C)[nH]c(C(=O)OCC(=O)Nc2cccc(S(=O)(=O)N(C)C)c2)c1C,inconclusive: 97.8%
6,CC(=O)N1CC(=O)N(Cc2ccccc2)/C(=C/c2ccccc2)C1=O,inconclusive: 98.7%
7,CC1(C)CC2(CCO1)C(Nc1ccccc1)=NC(=S)N2c1ccccc1 (stereo unspecified),inconclusive: 133%
8,CC1CCCCN1C(=O)Nc1cccc(C(F)(F)F)c1 (stereo unspecified),inactive: 101%
9,CCN(CC)C(=O)CC(c1ccc(N(C)C)cc1)c1c(OC)cc(OC)c2c(-c3ccccc3)cc(=O)oc12 (stereo unspecified),inconclusive: 89.6%
10,CCC(=O)N(CCc1ccccc1)Cc1cc2cc(OC)ccc2[nH]c1=O,inconclusive: 109%
11,O=C(COC(=O)c1cc(S(=O)(=O)N2CCCC2)ccc1O)Nc1ccc(S(=O)(=O)N2CCOCC2)cc1,inconclusive: 93%
12,Cc1ccnc(NS(=O)(=O)c2ccc(NS(C)(=O)=O)cc2)n1,inconclusive: 100%
13,OC(CNCCNc1ncccc1C(F)(F)F)Cn1ccc2ccccc21 (stereo unspecified),inconclusive: 39.4%
14,O=C(CC(c1ccccc1)c1cc(Cl)ccc1O)NCCN1CCOCC1 (stereo unspecified),inconclusive: 126%
15,NCCCCCC(=O)N/N=C/c1coc2ccccc2c1=O,inconclusive: 109%
16,Cc1csc(NC(=O)C2C3C=CC(C3)C2C(=O)O)n1 (stereo unspecified),active: -9.09%
17,CSc1ccc(S(=O)(=O)NC2CCCCCC2)cc1,inactive: 102%
18,CN(CC(=O)NCc1ccccn1)S(=O)(=O)c1ccc2ccccc2c1,inactive: 97.5%
19,N#CC(C(=O)Nc1ccc(Cl)c(Cl)c1)=C1Nc2ccccc2N1,inactive: 105%
20,CN(C)C(=O)C12CCC(C)(C(=O)C1Br)C2(C)C (stereo unspecified),inconclusive: 60%
21,CCc1ccc(NC(=O)Cn2c(=O)n(CCC(=O)NC3CCN(Cc4ccccc4)CC3)c(=O)c3ccccc32)cc1,inconclusive: 99.9%
22,CC(C)c1onc(C(=O)N(C)Cc2ccccc2)c1[N+](=O)[O-],inactive: 86.8%
23,Cc1ccc(S(=O)(=O)NNC(=S)Nc2cccc(F)c2)cc1,inconclusive: 91.6%

row,Structure (SMILES),binding response (% of control)
1,CSc1ccc(/C=N/Nc2nc(C)cc(C)n2)cc1,inconclusive: 102%
2,O=[N+]([O-])c1ccc2nc(-c3ccccn3)[nH]c2c1,inconclusive: 260%
3,Cc1c(S(=O)(=O)NCc2ccccc2)c(=O)n(C)c(=O)n1C,inconclusive: 115%
4,CC1CCCC(NC(=O)C2CCC(CNc3c(N4CCCC4)c(=O)c3=O)CC2)C1C (stereo unspecified),inconclusive: 66.6%
5,O[C@@H]1C2CCCC1[C@]1(O)CCCCC1C2 (stereo partly specified),inactive: 101%
6,CC(=O)Nc1ccc(C2=NNC(=Nc3ccc(S(=O)(=O)N4CCOCC4)cc3)SC2)cc1,inconclusive: 211%
7,O=C1c2ccccc2C(=O)C1c1ccccn1,inconclusive: 91.9%
8,Cc1nc(NCc2ccco2)c2c(C)c(C)sc2n1,inactive: 90.3%
9,Nn1c(SCc2cn3cc(Cl)ccc3n2)nnc1-c1ccncc1,inconclusive: 105%
10,CN(C)c1ccc(CN(C(=O)c2ccc(Cl)c([N+](=O)[O-])c2)C2CCS(=O)(=O)C2)cc1 (stereo unspecified),inconclusive: 82.7%
11,O=C(NC(=S)Nc1cccc([N+](=O)[O-])c1)c1ccccc1,inconclusive: -707%
12,CC1=NN(C(=O)c2ccoc2C)C(O)(C(F)(F)F)C1 (stereo unspecified),inconclusive: 259%
13,O=C(CN1CCCCCC1)N1c2ccccc2Sc2ccc(C(F)(F)F)cc21,inactive: 89.4%
14,C/C(=N/NC(=O)CNC(=O)Cc1ccccc1)c1ccc(Cl)cc1,inconclusive: 53.3%
15,CCOc1cc(N2CCOCC2)c(OCC)cc1NC(=O)CSc1ncccn1,inconclusive: 126%
16,CCCCOC(=O)c1nnc(-c2ccccc2)o1,inconclusive: 95.5%
17,Cc1nn(-c2ccccc2)c(Cl)c1C(=O)N1CCN(c2ncnc3c2cnn3-c2ccccc2)CC1,inactive: 85.4%
18,CC(C)(C)c1ccc(C(=O)O)c(C(=O)c2ccccc2)c1,inactive: 98.9%
19,O=C(NC(=S)Nc1cccc(C(F)(F)F)c1)c1ccc2nonc2c1,inconclusive: 130%
20,CCOc1ccc(N2C(=O)C3ON(c4ccccc4)C(c4cccs4)C3C2=O)cc1 (stereo unspecified),inactive: 96.5%
21,CC(C)(C)c1ccc(Oc2ncccc2NC(=O)c2cccs2)cc1,inconclusive: 123%
22,S=c1[nH]nc(CCCc2n[nH]c(=S)o2)o1,inconclusive: 40.8%
23,Cc1ccc(N2C(=O)C3CCC(C)(C2=O)C3(C)C)cc1 (stereo unspecified),inconclusive: 92.8%

row,Structure (SMILES),binding response (% of control)
1,CS(=O)(=O)c1ccc(Cl)c(NC(=O)COC(=O)c2ccc(F)cc2Cl)c1,inconclusive: 95.8%
2,COc1ccc(C(=O)C2CCCN(C(=O)Cn3nc(C)cc3C)C2)cc1F (stereo unspecified),inconclusive: 190%
3,Clc1ccc(-c2noc(CN3CCOCC3)n2)cc1,inconclusive: 129%
4,CCOC(=O)c1[nH]c(C)c(CC(C)C)c1C,inconclusive: 112%
5,O=C(CSc1nnc(-c2c[nH]c3ccccc23)o1)N1CCCCC1,inactive: 115%
6,CCOC(=O)N1CCC(NS(=O)(=O)c2ccc(C)cc2)CC1,inconclusive: 132%
7,O=C1c2ccccc2C(=O)c2c1cccc2-n1nnc2ccccc21,inconclusive: 115%
8,N#C/C(C(=O)N1CCOCC1)=C1/SC(Cc2ccccc2Cl)C(=O)N1c1ccccc1 (stereo unspecified),inactive: 98.4%
9,Cc1ccc(-n2c(SCC(=O)N/N=C/c3ccccc3OCC(=O)O)nc3ccccc3c2=O)cc1,inconclusive: 104%
10,O=C(COC(=O)c1cn(-c2ccccc2)nc1-c1ccccc1)Nc1ncc(Cl)cc1Cl,inconclusive: 100%
11,NC(=O)c1cc2cc(Cl)ccc2o/c1=N/NC(=O)c1cccs1,inconclusive: 88.5%
12,CNC(=O)C(=O)Nc1c(O)c2ccccc2[nH]c1=O,inconclusive: 28.1%
13,CC12CCC(C(=O)N(CC(O)CN3CCN(Cc4ccccc4)CC3)C1=O)C2(C)C (stereo unspecified),inconclusive: 97.2%
14,O=C1CSC(c2cccnc2)N1Cc1cccnc1 (stereo unspecified),inconclusive: 97.2%
15,Cc1cc(N)n(-c2ccc(S(=O)(=O)N3CCCC3)cc2[N+](=O)[O-])n1,inconclusive: 105%
16,Cc1ccccc1NP(=O)(c1ccccc1)c1nc2ccccc2s1 (stereo unspecified),inconclusive: 91.3%
17,Cc1ccc(-c2c[n+](Cc3cccc(Cl)c3)c3n2CCC3)cc1,inconclusive: 83.5%
18,COC(=O)C1=C(C(=O)OC)[C@@H]2N(C)c3ccccc3[C@@]23C[C@@H](C(=O)OC)N=C3N1,inconclusive: 90.8%
19,CNc1nc(N)nc(-c2cc(Cl)ccc2OC)n1,inactive: 109%
20,CCOC(=O)Cc1csc(NC(=O)c2csc3c2CCCC3)n1,active: 19.3%
21,COCCNC(=O)CN1C(=O)NC2(CCCCCC2)C1=O,inconclusive: 122%
22,Clc1ccccc1C1=CC(c2ccco2)n2ncnc2N1 (stereo unspecified),inconclusive: 71.7%
23,O=C(CCC(=O)OCc1ccc(Cl)cc1)Nc1cccc([N+](=O)[O-])c1,active: 46.1%

# 2 of the compounds above, with bars between the fields:
row | Structure (SMILES) | binding response (% of control)
4 | CCC(C)(C)NC(=O)c1cc(C(=O)OC)cc([N+](=O)[O-])c1 | inactive: 99.6%
5 | CC(=O)c1c(C)[nH]c(C(=O)OCC(=O)Nc2cccc(S(=O)(=O)N(C)C)c2)c1C | inconclusive: 97.8%

# (cont.)

row,Structure (SMILES),binding response (% of control)
1,Cn1c(N)c(C(=O)COC(=O)c2ccc([N+](=O)[O-])o2)c(=O)n(C)c1=O,inconclusive: 130%
2,Cc1ccc(NC(=O)Nc2cccnc2)cc1NC(=O)Nc1cccnc1,inconclusive: 136%
3,COc1ccc(C2=NN(CC(=O)Nc3cc(C)ccc3C)C(=O)CC2)cc1,inconclusive: -93.8%
4,Nn1cc(-c2ccccc2)nc1SCC(=O)Nc1cccc(S(N)(=O)=O)c1,inconclusive: 122%
5,O=C1CCC(=O)N1CC1CC2CCC1C2 (stereo unspecified),inconclusive: 98%
6,CCCCCc1ccc(OCCC[n+]2ccccc2)c(CCCCC)c1,inconclusive: 67.5%
7,CCN(CC)S(=O)(=O)c1ccc(N2CCOCC2)c(NC(=O)CNCCc2ccccc2)c1,inconclusive: 62.6%
8,Cc1ccc(C(NC(=O)N2CCCC2)C(Cl)Cl)cc1F (stereo unspecified),inconclusive: 92%
9,C[n+]1cccc(C2C(C#N)=C(N)Oc3c2ccc2ccccc32)c1 (stereo unspecified),inconclusive: 83.3%
10,O=S(=O)(c1ccc(F)cc1F)N1CCCN(c2ccc(C(F)(F)F)cn2)CC1,inconclusive: 237%
11,Cc1[nH]c(=O)c(C(=O)c2ccccc2O)cc1C(=O)O,inconclusive: 94.2%
12,O=C(O)CCNC(=O)CCCn1nnc2ccccc2c1=O,inconclusive: 130%
13,c1ccc(-n2cnc3cc(NCc4ccco4)ccc32)cc1,inactive: 107%
14,COc1ccccc1CNC(=O)CSC1=NCCS1,inconclusive: 92.7%
15,COc1cc(C(=O)NCC(c2cccnc2)N2CCN(c3ccc(F)cc3)CC2)cc(OC)c1OC (stereo unspecified),inactive: 100%
16,O=C1CCC(C(=O)NCc2ccc3c(c2)OCO3)N1 (stereo unspecified),inconclusive: 108%
17,CCc1ccc(NC(=S)N2CCNC(=O)C2CC(=O)OC)cc1 (stereo unspecified),inactive: 102%
18,COc1ccc(NC(=S)N2CCN(C(=O)c3ccccc3)CC2)cc1,inactive: 96.4%
19,O=[N+]([O-])c1cccc(-c2nc(-c3ccccn3)no2)c1,inconclusive: 103%
20,O=C(CSc1ccsc1[N+](=O)[O-])NCc1ccco1,inconclusive: 107%
21,Cc1nc2ccc(NC(=O)Cc3ccccc3F)cc2s1,inconclusive: 107%
22,CC1=C[C@H]2OC(=O)[C@@H](C)[C@H]2C[C@@H]2[C@H]1C[C@@H](O)[C@@]2(C)O,inconclusive: 115%

# For reference, some entries already given.
row,Structure (SMILES),binding response (% of control)
5,O=C1CCC(=O)N1CC1CC2CCC1C2 (stereo unspecified),inconclusive: 98%
6,CCCCCc1ccc(OCCC[n+]2ccccc2)c(CCCCC)c1,inconclusive: 67.5%
